In PubChem BioAssay AID602313 (National Center for Advancing Translational Sciences (NCATS), 2012):
The campaign covered roughly 390,000 compounds. About 760 (0.19%) were called active. The inconclusive results got no clear call from the source; some entries with a clear call stand among them for comparison. The call rests on the fitted dose curve; in most records, active means well fitted inhibition curve with a large enough effect; inconclusive means small, poorly fitted or top-dose-only effect; inactive means flat fitted curve, though single readings scatter. A potency beside an inconclusive call is a rough fit, not a confirmed value.

assay: qHTS for Inhibitors of Vif-A3F Interactions: qHTS; conditions: HeLa A3F-eYFP + Vif (tagged APOBEC3F with the HIV-1 protein that degrades it), YFP fluorescence increase; series mostly up to 46.1 µM; further: nearly all actives have a fitted effect of over 65% in size
How it was run: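 HeLa cells stably expressing A3F-eYFP plus Vif, plated and incubated overnight at 37 deg C, then exposed to compounds overnight at 37 deg C. Blocked degradation read as raised yellow fluorescence (Ex 488/Em 500-530).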
Potency means the concentration at half of the fitted maximal effect.

Compound	Potency
COc1cc(CNc2ccc3[nH]c(=O)[nH]c3c2)cc(Br)c1OCc1ccccc1F	inconclusive: 3.55 µM [inhibitor, single point]
O=C1N=C(N2CCOCC2)S/C1=C/c1ccc(-c2ccccc2Cl)o1	inactive
COc1cccc(/C=N/NC(=O)c2ccc(-c3ccccc3)cc2)c1O	inconclusive: 3.16 µM [inhibitor, partial curve, poor fit]
CCOC(=O)/C(=N\Nc1ccc(C(C)=O)cc1)c1csc(Nc2ccccc2)n1	inconclusive: 15.8 µM [inhibitor, partial curve, poor fit]
COc1cccc(NC(=O)CN(C)C(=O)COc2cc(C)ccc2Cl)c1	inconclusive: 3.16 µM [inhibitor, single point]
O=C(NN1C(=O)/C(=C/c2ccc(O)c(O)c2)SC1=S)c1ccccc1	inconclusive: 15.8 µM [inhibitor, single point]
CSc1nc(=S)c2[nH]c(=S)[nH]c2[nH]1	inconclusive: 0.562 µM [inhibitor, partial curve, poor fit]
CC(O)CNCCNCc1cccs1 (configuration not stated)	inconclusive: 0.355 µM [inhibitor, full curve, poor fit]
COc1ccc(C(=O)CSc2nnc(CNC(=O)c3ccco3)n2C)cc1	inconclusive: 7.08 µM [inhibitor, partial curve, poor fit]
CN(O)C(=S)c1ccccc1	inconclusive: 35.5 µM [inhibitor, single point]
CCOC(=O)[C@@H]1[C@H]2COc3cc(OC)ccc3[C@@H]2N2C(=O)N(c3ccc(C(F)(F)F)cc3)C(=O)[C@@]12C	inactive
O=C(Nc1ccc(F)cc1)c1cc(-c2ccncc2)nc2c(Cl)cccc12	inconclusive: 35.5 µM [inhibitor, single point]
Cc1cc(C)c2cc(C#N)c(SCC(=O)Nc3cc(C)on3)nc2c1	inconclusive: 6.31 µM [inhibitor, single point]
C/C(=N\Nc1nc2ccccc2s1)c1cccs1	inactive
COc1ccc(N2CCN(S(=O)(=O)c3cnc[nH]3)CC2)cc1	inconclusive: 2.51 µM [inhibitor, full curve, poor fit]
CCN1C(=O)C(=CC=CN(C)c2ccccc2)SC1=S	inconclusive: 6.31 µM [inhibitor, partial curve, poor fit]
CC(C)(C)NCC(=Cc1ccccc1)C(=O)c1ccccc1	inconclusive: 3.55 µM [inhibitor, single point]
CCOc1cc(/C=C2/SC(=S)N(CC3CCCO3)C2=O)ccc1O (configuration not stated)	active: 22.4 µM
COc1ccc(CNc2nc3c(-c4cccc(F)c4)nnn3c3ccccc23)cc1	inconclusive: 10 µM [inhibitor, partial curve]
CC(=O)NC(=S)Nc1sc2c(c1C#N)CCCCC2	inconclusive: 14.1 µM [inhibitor, partial curve, poor fit]
Nc1nc(N2CCN(C(=O)c3ccco3)CC2)nc2ccc(Br)cc12	inactive

Compound	Potency
COc1ncnc2c1sc1nc(-c3ccccc3)c3c(c12)CCCC3	inactive
COc1ccc(C(=O)NCCN2CCOCC2)c(OC)c1	inconclusive: 35.5 µM [inhibitor, single point]
CC(O)CN(CC(C)O)c1ccc2c(c1)Cc1cc([N+](=O)[O-])ccc1-2 (configuration not stated)	inconclusive: 2.82 µM [inhibitor, full curve, poor fit]
O=S(=O)(c1ccc(OCC(O)CNC23CC4CC(CC(C4)C2)C3)c(Cl)c1)N1CCOCC1 (configuration not stated)	inconclusive: 22.4 µM [inhibitor, single point]
CNC(=O)c1ccsc1NC(=O)CCS(=O)(=O)c1ccccc1	inconclusive: 11.2 µM [inhibitor, partial curve, poor fit]
COc1ccc(OC)c(CNC(=O)c2ccc(NC(=O)c3nsc4ccccc34)cc2)c1	inactive
N=c1c2c(-c3ccccc3)c(-c3ccccc3)n(Cc3ccccc3)c2ncn1CCCn1ccnc1	inconclusive: 25.1 µM [inhibitor, single point]
COc1ccc(/C=C/C(=O)c2ccc3c4c(cccc24)CC3)cc1OC	inconclusive: 25.1 µM [inhibitor, single point]
CC(C)Cn1c(SCC(=O)Nc2cccc(S(N)(=O)=O)c2)nc2ccccc2c1=O	inconclusive: 35.5 µM [inhibitor, single point]
CCN(CC)C(=O)CSC1=C(C#N)C(c2cccs2)C=C(C)N1 (configuration not stated)	inactive
Cc1ccc(S(=O)(=O)CCC(=O)OCC(=O)c2cc(C)ccc2C)cc1	inactive
N#C/C(=C\N1CCN(Cc2ccc3c(c2)OCO3)CC1)c1nc2ccccc2s1	active: 28.2 µM
CN(CC(=O)Nc1ccc(N2CCOCC2)cc1)C(=O)c1cc(F)c(F)cc1Cl	inconclusive: 2 µM [inhibitor, partial curve, poor fit]
O=C(COC(=O)c1n[nH]c(=O)c2ccccc12)c1ccc(Cl)cc1	inconclusive: 35.5 µM [inhibitor, single point]
CC(C)(C)C1CCC(=NNC(=S)Nc2cccnc2)CC1 (configuration not stated)	inconclusive: 35.5 µM [inhibitor, single point]
Cc1cc(F)ccc1NC(=O)c1sc2nc(-c3cccs3)ccc2c1N	inconclusive: 35.5 µM [inhibitor, single point]
Cc1ccc(CC(=O)Nc2c(C(=O)N3CCN(c4ccccc4F)CC3)oc3ccccc23)cc1	inactive
O=C(CSc1cccc2cccnc12)Nc1cc(C(=O)O)cc(C(=O)O)c1	inconclusive: 35.5 µM [inhibitor, single point]
Cc1ccccc1CSCCNC(=S)Nc1ccccc1	inconclusive: 35.5 µM [inhibitor, partial curve, poor fit]
O=c1[nH]c(-c2ccccn2)nc2sc(-c3ccccc3)cc12	inconclusive: 0.562 µM [inhibitor, partial curve, poor fit]
Cc1nc(C)c(C(=O)OCC(=O)Nc2ccccc2SCC#N)s1	inconclusive: 20 µM [inhibitor, partial curve, poor fit]

Structural class: the entries above containing bromine
Compound	Potency
COc1cc(CNc2ccc3[nH]c(=O)[nH]c3c2)cc(Br)c1OCc1ccccc1F	inconclusive: 3.55 µM [inhibitor, single point]
Nc1nc(N2CCN(C(=O)c3ccco3)CC2)nc2ccc(Br)cc12	inactive
